From patent US20110046137A1, “Pyrazole Derivatives as P2X7 Modulators” (Glaxo Group Limited, priority 2007, published 2011)
Some entries share one result that the patent states for a list of compounds.

Molecular target: T1, human recombinant P2X7 receptors (Homo sapiens, UniProt Q99572)
T1 construct: expressed in transfected cells; host or cells: HEK293
T1 sequence (Q99572 1-595): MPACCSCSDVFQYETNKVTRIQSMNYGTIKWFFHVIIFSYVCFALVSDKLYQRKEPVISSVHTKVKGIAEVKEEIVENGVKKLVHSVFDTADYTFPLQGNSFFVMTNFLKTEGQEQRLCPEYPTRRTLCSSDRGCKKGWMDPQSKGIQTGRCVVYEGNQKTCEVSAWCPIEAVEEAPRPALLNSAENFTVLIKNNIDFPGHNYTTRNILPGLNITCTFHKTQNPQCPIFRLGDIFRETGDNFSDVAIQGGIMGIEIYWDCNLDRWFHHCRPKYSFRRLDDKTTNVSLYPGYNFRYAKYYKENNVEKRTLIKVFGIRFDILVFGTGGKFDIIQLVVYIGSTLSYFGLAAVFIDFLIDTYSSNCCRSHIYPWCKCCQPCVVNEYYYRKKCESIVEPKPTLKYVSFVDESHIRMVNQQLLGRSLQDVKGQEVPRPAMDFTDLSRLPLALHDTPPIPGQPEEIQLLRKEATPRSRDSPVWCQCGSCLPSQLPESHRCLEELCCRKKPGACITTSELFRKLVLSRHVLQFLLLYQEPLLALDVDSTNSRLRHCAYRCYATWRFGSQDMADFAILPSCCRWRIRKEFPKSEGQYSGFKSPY
Assay: Fluorescent Imaging Plate Reader (FLIPR) Ca Assay
Assay type: cell-based
Details: HEK293 cells expressing human recombinant P2X7; blocking BzATP responses; tested in one and/or the other assay

p1050 values in the FLIPR Ca Assay (human P2X7 receptor antagonist activity), > 4.7:
Cc1nn(-c2ccccc2)c(C)c1CC(=O)NCc1ccc(Br)cc1 [Example 15, N-[(4-bromophenyl)methyl]-2-(3,5-dimethyl-1-phenyl-1H-pyrazol-4-yl)acetamide]
Cc1nn(CCN2CCCC2)c(C)c1CC(=O)NCc1ccc(F)cc1Cl [Example 138, N-[(2-chloro-4-fluorophenyl)methyl]-2-{3,5-dimethyl-1-[2-(1-pyrrolidinyl)ethyl]-1H-pyrazol-4-yl}acetamide]
Cc1nn(-c2ccccc2)c(C)c1CC(=O)NCc1cccc([N+](=O)[O-])c1 [Example 17, 2-(3,5-dimethyl-1-phenyl-1H-pyrazol-4-yl)-N-[(3-nitrophenyl)methyl]acetamide]
Cc1nn(-c2ccc(C(=O)N3CCCCC3)cc2)c(C)c1CC(=O)NCc1ccc(F)cc1Cl [Example 153, N-[(2-chloro-4-fluorophenyl)methyl]-2-{3,5-dimethyl-1-[4-(1-piperidinylcarbonyl)phenyl]-1H-pyrazol-4-yl}acetamide]
Cc1nn(CCN2CCOCC2)c(C)c1CC(=O)NCc1ccc(F)cc1Cl [Example 133, N-[(2-chloro-4-fluorophenyl)methyl]-2-{3,5-dimethyl-1-[2-(4-morpholinyl)ethyl]-1H-pyrazol-4-yl}acetamide]
Cc1cccc(Cl)c1CNC(=O)Cc1c(C)nn(CC(C)(C)O)c1C [Example 168, N-[(2-chloro-6-methylphenyl)methyl]-2-[1-(2-hydroxy-2-methylpropyl)-3,5-dimethyl-1H-pyrazol-4-yl]acetamide]
Cc1nn(-c2cccc(F)c2)c(C)c1CC(=O)NCc1ccc(F)cc1Cl [Example 56, N-[(2-chloro-4-fluorophenyl)methyl]-2-[1-(3-fluorophenyl)-3,5-dimethyl-1H-pyrazol-4-yl]acetamide]
COc1ccc(-n2nc(C)c(CC(=O)NCc3ccc(F)cc3Cl)c2C)cn1 [Example 170, N-[(2-chloro-4-fluorophenyl)methyl]-2-{3,5-dimethyl-1-[6-(methyloxy)-3-pyridinyl]-1H-pyrazol-4-yl}acetamide]
Cc1nn(-c2cccnc2)c(C)c1CC(=O)NCc1ccc(F)cc1Cl [Example 73, N-[(2-chloro-4-fluorophenyl)methyl]-2-[3,5-dimethyl-1-(3-pyridinyl)-1H-pyrazol-4-yl]acetamide]
Cc1nn(-c2ccc(C#N)cn2)c(C)c1CC(=O)NCc1ccc(F)cc1Cl [Example 64, N-[(2-chloro-4-fluorophenyl)methyl]-2-[1-(5-cyano-2-pyridinyl)-3,5-dimethyl-1H-pyrazol-4-yl]acetamide]
Cc1nn(-c2ccccc2)c(C)c1CC(=O)NCc1ccc(C(F)(F)F)c(F)c1 [Example 20, 2-(3,5-dimethyl-1-phenyl-1H-pyrazol-4-yl)-N-{[3-fluoro-4-(trifluoromethyl)phenyl]methyl}acetamide]
COc1ccccc1-n1nc(C)c(CC(=O)NCc2ccc(F)cc2Cl)c1C [Example 61, N-[(2-chloro-4-fluorophenyl)methyl]-2-{3,5-dimethyl-1-[2-(methyloxy)phenyl]-1H-pyrazol-4-yl}acetamide]
Cc1nn(-c2ccccc2)c(C)c1CC(=O)NCc1ccccc1Cl [Example 34, N-[(2-chlorophenyl)methyl]-2-(3,5-dimethyl-1-phenyl-1H-pyrazol-4-yl)acetamide]
Cc1nn(-c2ccc(C(=O)NCC(N)=O)cc2)c(C)c1CC(=O)NCc1ccc(F)cc1Cl [Example 162, N-(2-amino-2-oxoethyl)-4-[4-(2-{[(2-chloro-4-fluorophenyl)methyl]amino}-2-oxoethyl)-3,5-dimethyl-1H-pyrazol-1-yl]benzamide]
CCCCc1nn(-c2ccccc2)c(C)c1CC(=O)NCc1ccc(F)cc1Cl [Example 120, 2-(3-butyl-5-methyl-1-phenyl-1H-pyrazol-4-yl)-N-[(2-chloro-4-fluorophenyl)methyl]acetamide]
Cc1nn(Cc2ccc(F)cc2F)c(C)c1CC(=O)NCc1ccc(F)cc1Cl [Example 88, N-[(2-chloro-4-fluorophenyl)methyl]-2-{1-[(2,4-difluorophenyl)methyl]-3,5-dimethyl-1H-pyrazol-4-yl}acetamide]
Cc1cc(-n2nc(C)c(CC(=O)NCc3ccc(F)cc3Cl)c2C)nc(C)n1 [Example 80, N-[(2-chloro-4-fluorophenyl)methyl]-2-[1-(2,6-dimethyl-4-pyrimidinyl)-3,5-dimethyl-1H-pyrazol-4-yl]acetamide]
O=C(Cc1cn(CCO)nc1C(F)(F)F)NCc1ccc(F)cc1Cl [Example 174, N-[(2-chloro-4-fluorophenyl)methyl]-2-[1-(2-hydroxyethyl)-3-(trifluoromethyl)-1H-pyrazol-4-yl]acetamide]
Cc1nn(C2CCCCC2c2ccccc2)c(C)c1CC(=O)NCc1ccc(F)cc1Cl (stereo not drawn) [Example 102, N-[(2-chloro-4-fluorophenyl)methyl]-2-[3,5-dimethyl-1-(2-phenylcyclohexyl)-1H-pyrazol-4-yl]acetamide]
Cc1nn(-c2ccc(C(F)(F)F)cc2)c(C)c1CC(=O)NCc1ccc(F)cc1Cl [Example 117, N-[(2-chloro-4-fluorophenyl)methyl]-2-{3,5-dimethyl-1-[4-(trifluoromethyl)phenyl]-1H-pyrazol-4-yl}acetamide]
Cc1nn(-c2ncccc2C(F)(F)F)c(C)c1CC(=O)NCc1ccc(F)cc1Cl [Example 72, -[(2-chloro-4-fluorophenyl)methyl]-2-{3,5-dimethyl-1-[3-(trifluoromethyl)-2-pyridinyl]-1H-pyrazol-4-yl}acetamide]
Cc1ccc(Cl)cc1CNC(=O)Cc1c(C)nn(-c2ccccc2)c1C [Example 24, N-[(5-chloro-2-methylphenyl)methyl]-2-(3,5-dimethyl-1-phenyl-1H-pyrazol-4-yl)acetamide]
Cc1nn(-c2ccccc2)c(C)c1CC(=O)NCc1cc(C(F)(F)F)cc(C(F)(F)F)c1 [Example 32, N-{[3,5-bis(trifluoromethyl)phenyl]methyl}-2-(3,5-dimethyl-1-phenyl-1H-pyrazol-4-yl)acetamide]
Cc1ncccc1-n1nc(C)c(CC(=O)NCc2ccc(F)cc2Cl)c1C [Example 150, N-[(2-chloro-4-fluorophenyl)methyl]-2-[3,5-dimethyl-1-(2-methyl-3-pyridinyl)-1H-pyrazol-4-yl]acetamide]
